Some entries share one result that the patent states for a list of compounds.
Key:
Format in all cases: in vivo
[1] = tested on: Avena fatua; assay: Pre-emergence herbicidal action against harmful plants; settings: application rate 320 g/ha, scored visually after 3 weeks vs untreated controls
[2] = tested on: Cyperus serotinus; assay: as above; settings: application rate 320 g/ha, scored visually after 3 weeks vs untreated controls
[3] = tested on: Echinochloa crus galli; assay: as above; settings: application rate 320 g/ha, scored visually after 3 weeks vs untreated controls
[4] = tested on: Abutilon theophrasti; assay: as above; settings: application rate 320 g/ha, scored visually after 3 weeks vs untreated controls
[5] = tested on: Amaranthus retroflexus; assay: as above; settings: application rate 320 g/ha, scored visually after 3 weeks vs untreated controls
[6] = tested on: Stellaria media; assay: as above; settings: application rate 320 g/ha, scored visually after 3 weeks vs untreated controls
[7] = tested on: Viola tricolor; assay: as above; settings: application rate 320 g/ha, scored visually after 3 weeks vs untreated controls
[8] = tested on: Echinochloa crus galli; assay: Post-emergence herbicidal action against harmful plants; settings: application rate 80 g/ha, scored visually after about 3 weeks vs untreated controls
[9] = tested on: Abutilon theophrasti; assay: as above; settings: application rate 80 g/ha, scored visually after about 3 weeks vs untreated controls
[10] = tested on: Amaranthus retroflexus; assay: as above; settings: application rate 80 g/ha, scored visually after about 3 weeks vs untreated controls
[11] = tested on: Veronica persica; assay: as above; settings: application rate 80 g/ha, scored visually after about 3 weeks vs untreated controls

Measured: herbicidal efficacy in percent

Cn1nnnc1NC(=O)c1nn(C)c(=O)n(-c2ccccc2)c1=O [1-12, 4-phenyl-2-methyl-N-(1-methyltetrazol-5-yl)-1,2,4-triazin-3,5-dione-6-carboxamide]
at least 80%: all assays above
